From patent US20230287071A1
These are yes or no findings as the source states them, for the method shown. Binding can be weak; no strength is given.

Biological target: HLA-B*44:05 (human)
Test: UV peptide-exchange ELISA, yield grade

| Binder | binding |
| --- | --- |
| MEVDPIGHLYIF [… (SEQ ID NO: 9)] | binds |
| RENPGMFSW [… (SEQ ID NO: 172)] | binds |
| SEHSLEGQKF [… (SEQ ID NO: 173)] | binds |
| DENDAGNLITF [… (SEQ ID NO: 174)] | binds |
| GETQQHIQL [… (SEQ ID NO: 176)] | binds |
| LEEPMPFFY [… (SEQ ID NO: 177)] | binds |
| MEGAALLKIF [… (SEQ ID NO: 178)] | binds |
| EEHIFSAF [EEHIFSAF (SEQ ID NO: 179)] | binds |
| EEHSSKLQTSL [… (SEQ ID NO: 180)] | binds |
| HEVAQDDHL [… (SEQ ID NO: 181)] | binds |
| EELHAALSEW [… (SEQ ID NO: 182)] | binds |
| SEYPTKNYV [… (SEQ ID NO: 10)] | binds |
| KEMQVTISQQL [… (SEQ ID NO: 183)] | binds |
| EEQLLQKVM [… (SEQ ID NO: 184)] | binds |
| TEANVQALF [… (SEQ ID NO: 185)] | binds |
| EEIFAHLGL [… (SEQ ID NO: 186)] | binds |
| TEQALRLSV [… (SEQ ID NO: 187)] | binds |
| AEFVPKADLL [… (SEQ ID NO: 188)] | binds |
| ALNGDIYVW [… (SEQ ID NO: 189)] | binds |
| NEAGEVSKHF [… (SEQ ID NO: 190)] | binds |
| AEHDMKSVL [… (SEQ ID NO: 191)] | binds |
| LEIMTNLVTL [… (SEQ ID NO: 192)] | binds |
| EENIVAIGI [… (SEQ ID NO: 11)] | binds |
| RELRPLFDRQW [… (SEQ ID NO: 193)] | binds |
| TEGDVLNYIF [… (SEQ ID NO: 194)] | binds |
| MEIKGTVTEF [… (SEQ ID NO: 195)] | binds |

| Binder | binding |
| --- | --- |
| TELEVKIRDW [… (SEQ ID NO: 196)] | binds |
| NEILTIHF [NEILTIHF (SEQ ID NO: 197)] | binds |
| REEEANVVL [… (SEQ ID NO: 198)] | binds |
| AELPENLKALF [… (SEQ ID NO: 199)] | binds |
| KELSVFKKF [… (SEQ ID NO: 200)] | binds |
| MEILWKTLT [… (SEQ ID NO: 201)] | binds |
| RELPLVLLA [… (SEQ ID NO: 202)] | binds |
| KEVDPTGHSF [… (SEQ ID NO: 12)] | binds |
| REILHAQTL [… (SEQ ID NO: 203)] | binds |
| YERPTLVEL [… (SEQ ID NO: 204)] | binds |
| MEIEGAGNFL [… (SEQ ID NO: 205)] | binds |
| SEDPEKYYL [… (SEQ ID NO: 206)] | binds |
| LEGGGRGGEF [… (SEQ ID NO: 207)] | binds |
| SEFLLRIF [SEFLLRIF (SEQ ID NO: 208)] | binds |
| AEGEPPPAL [… (SEQ ID NO: 209)] | binds |
| AEGEPPPALAW [… (SEQ ID NO: 210)] | binds |
| LEMLDAHRL [… (SEQ ID NO: 211)] | binds |
| SEASVYLFRF [… (SEQ ID NO: 212)] | binds |
| VEAQDRETW [… (SEQ ID NO: 13)] | binds |
| DEDLFHKL [DEDLFHKL (SEQ ID NO: 213)] | binds |
| SVNPIIYGF [… (SEQ ID NO: 214)] | binds |
| AGSPVMRKW [… (SEQ ID NO: 216)] | binds |
| EVEVGDRTDW [… (SEQ ID NO: 217)] | binds |
| REAEEKEAQL [… (SEQ ID NO: 218)] | binds |
| WEVEVGDRTDW [… (SEQ ID NO: 219)] | binds |
| EEEVFSGMKL [… (SEQ ID NO: 220)] | binds |

| Binder | binding |
| --- | --- |
| SEDTIHTHL [… (SEQ ID NO: 222)] | binds |
| SEVEGLAFV [… (SEQ ID NO: 223)] | binds |
| TETDIDREY [… (SEQ ID NO: 224)] | binds |
| EMPGGPVW [EMPGGPVW (SEQ ID NO: 14)] | binds |
| AEDNMVTSY [… (SEQ ID NO: 226)] | binds |
| LEYEAPKLY [… (SEQ ID NO: 228)] | binds |
| AEDLEKKYA [… (SEQ ID NO: 229)] | binds |
| AEALVDGKW [… (SEQ ID NO: 230)] | binds |
| AEALVDGKWQEF [… (SEQ ID NO: 231)] | binds |
| YEIRAEAL [YEIRAEAL (SEQ ID NO: 232)] | binds |
| QEDKATQTL [… (SEQ ID NO: 233)] | binds |
| TEEPQRLFY [… (SEQ ID NO: 234)] | binds |
| SESLPRAPL [… (SEQ ID NO: 235)] | binds |
| LEDQLKPMLEW [… (SEQ ID NO: 236)] | binds |
| MEAELVRRI [… (SEQ ID NO: 15)] | binds |
| QEIGQKTSV [… (SEQ ID NO: 237)] | binds |
| VEDDNYKLSL [… (SEQ ID NO: 238)] | binds |
| DEDYTYLIL [… (SEQ ID NO: 239)] | binds |
| MELQVSSGF [… (SEQ ID NO: 240)] | binds |
| QELLDIANYL [… (SEQ ID NO: 241)] | binds |
| CDAQIQYSY [… (SEQ ID NO: 242)] | binds |
| VEQINISQDW [… (SEQ ID NO: 243)] | binds |
| VESSQAFTW [… (SEQ ID NO: 244)] | binds |
| MEFQGPMPAGM [… (SEQ ID NO: 245)] | binds |
